Measurements: PubChem BioAssay AID2634 (National Center for Advancing Translational Sciences (NCATS), 2010)
This list was built around the results that the source calls inconclusive (neither active nor inactive); the mix of calls is not that of the screen. Active and inactive are the calls of the source.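 How the source made its calls: active means compounds whose potency, the dose giving half inhibition, is below 20 µM; inconclusive means compounds meeting neither the active nor the inactive rule; inactive means potency over 20 µM or below 50% inhibition when unfitted.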

Molecular target: Integrin alpha-IIb (Homo sapiens) (UniProt P08514)
Assay: Platelet Adhesion Secondary Assay for Inhibitors of Platelet Integrin alphallb-beta3
Details: human platelet adhesion to fibrinogen, calcein fluorescence; at 30 µM, stronger effect = higher value
Excerpt: NIH Molecular Libraries Probe Production Network [MLPCN] NIH Chemical Genomics Center [NCGC] MLPCN Grant: 1 R03 MH083257-01 Assay Provider: Barry Coller, Rockefeller University NCGC Assay Overview: The alphaIIbbeta3 receptor plays a vital role in hemostasis and thrombosis, where receptor deficiency causes the hemorrhagic disorder, Glanzmann thrombasthenia, and uncontrolled receptor activation causes thrombosis and blood vessel occlusion. Small molecule inhibitors of alphaIIbbeta3, tirofiban and eptifibatide, have undesirable side effects thought to arise from conformational changes in alphaIIbbeta3. These changes transiently activate the receptor to cause spontaneous platelet aggregation and thrombus formation. […] This secondary assay measures the binding of human plates to fibrinogen, an extracellular matrix protein (Blue et al., 2008). Platelets were loaded with a fluorescent dye, calcein, and added to fibrinogen-coated plates. Following incubation, unbound platelets were removed by washing and bound platelets were detected by measuring fluorescence intensity. Inhibitors of alphaIIbbeta3 block platelet binding to fibrinogen and result in a decrease in fluorescence intensity. […]

Structure (SMILES) | outcome | inhibition
CCc1nn2c(=O)c(F)c(N3CCNCC3)nc2s1 | inactive | 
O=c1cc(N2CCNCC2)nc2sc(C3CC3)nn12 |  | inconclusive: 51%
